The results in this text go back to paper PMC4954681.

The chains behind the UniProt entries cited, without tags or fusion partners. Where a name states a change or a piece, a line headed by the entry shows the natural chain unless it says otherwise.
UniProt P84095: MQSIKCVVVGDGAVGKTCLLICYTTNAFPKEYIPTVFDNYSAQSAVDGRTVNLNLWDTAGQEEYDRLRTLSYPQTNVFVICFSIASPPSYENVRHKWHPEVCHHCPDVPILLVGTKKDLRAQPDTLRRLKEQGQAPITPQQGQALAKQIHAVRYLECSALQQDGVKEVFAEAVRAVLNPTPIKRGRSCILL

Test [1] deals with T1, GST-fused N-terminal RhoG-binding domain of ELMO2 (UniProt Q96JJ3).
T1 sequence: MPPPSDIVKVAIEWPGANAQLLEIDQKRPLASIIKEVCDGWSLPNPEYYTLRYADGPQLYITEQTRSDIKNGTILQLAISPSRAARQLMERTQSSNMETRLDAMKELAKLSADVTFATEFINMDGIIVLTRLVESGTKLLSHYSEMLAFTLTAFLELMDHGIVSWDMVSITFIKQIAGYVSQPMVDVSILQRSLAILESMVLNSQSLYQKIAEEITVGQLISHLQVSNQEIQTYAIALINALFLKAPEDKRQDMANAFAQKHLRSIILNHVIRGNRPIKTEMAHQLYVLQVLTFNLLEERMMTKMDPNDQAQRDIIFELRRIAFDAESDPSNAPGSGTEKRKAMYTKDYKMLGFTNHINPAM
Put plainly: pull-down; 20 ug GST-ELMO-NT bound to glutathione-Sepharose beads, incubated 30 min at 4°C with lysates of HEK293T cells transfected with Myc-RhoG with or without Flag-SGEF and HA-Src-YF; 10 mM Tris-HCl pH 7.5, 100 mM NaCl, 2 mM MgCl2, 1% Nonidet P-40, 10% glycerol; anti-Myc immunoblot; only the target purified.

For test [2], the target named is GST-fused RhoG containing the G15A mutation (UniProt P84095). The test is described as follows: pull-down; GST-RhoG-G15A bound to glutathione-Sepharose beads, incubated 1 h with lysates of HEK293T cells transfected with Flag-SGEF (WT or mutants) alone or together with HA-Src-YF; some cells treated 30 min with 20 uM PP2 or PP3; 20 mM Tris-HCl pH 7.5, 150 mM NaCl, 2 mM MgCl2, 1% Triton X-100; anti-Flag immunoblot; only the target purified.

Where a chain is given by its changes, count along the chain named. Names and notes keep the numbering of the source. Results are given in words; binding and its absence hold for the method and conditions named. In cells and extracts the contact can be indirect. Some results given as binding are weak or reduced against the parent protein; the word gives no strength. Where a sequence is shown, tags or fusion partners need not be part of it.

Consider “Myc-tagged RhoG (from UniProt P84095 1-191)”, for which the binding result in test [1] was “binds”.

B1: Flag-tagged wild-type SGEF (protein, UniProt D3YYY8 1-869)
chain: MDGESEVDFSSNGVTPLWRRRSTPPLQLLSRSKPRPQSYQSPSGLLITDFPVEELAALPTPQTPVRVPADPDDRTVSRSPQLLSAHRRPVTNGRTVSPDYRAASPRLRRPKSPLVSYAASGGSPKSTSNGTVASPAALLSRASRTPDTPASCATDEDCTGVTASKVSSPIANGLAHKTDSSGPVSQTGQPAGDLELAPSRLSPALPHKSSEQKLPLQRLPSQGNELPNPSVVLSTNSPAALKMGKQQIIPKSLASEIKLSKSNSQNVESHRRLLKVRSMVEGLGAPLGHEGEEGEVDNDMDSPGSLRRGLRSTSYRRAVVSGFDFDSPTSSKKKNRMSQPVLKAVMEDKEKFSSLGRIKKKILKGQGTFDGEENAVLYQNYKEKALDIDSDEEPEAKEQKAEERIVIHHKPLRSTWSQLSAVKRNGLSQTVSQEERKRQEAIFEVISSEHSYLLSLEILIRMFKNSKELTDTMTKTERHHLFSNITDVWEASKKFFTELEARHQNNIFIEDISDIVEKHTASTFDPYVKYCTNEVYQQRTLQKLLATNPSFKEVLSRIESHEDCRNLPMISFLILPMQRVTRLPLLMDTICQKTPKDSPKYEVCKRALKEVSKLVRLCNEGARKMERTEMMYTINSQLEFKIKPFPLVSSSRWLVKRGELTAYVEDTVLFSKRMSKQQVYFFLFNDVLIITKKKSEESYNVNDYSLRDQLLVESCDNEELNSSPGKNPSTMLYSRQSSATHLFTLTVLSNHASEKVDMLLGAETQSERARWITALGHSSGKQPPDRTTLTQVEIIRSFTAKQPDELSLQVADVVLIYQRVGDGWYEGERLRDGERGWFPMECAKEITCQATIDKNVERMGRLLGLETNV
Take B1: in test [2], the binding entry is given as “binds”.

B2: Flag-tagged SGEF-Y527F (protein, UniProt D3YYY8 1-869)
chain: B1 chain with Y527F
Take B2: the binding result in test [2] was “binds”.

B3: Flag-tagged SGEF-Y530F (protein, UniProt D3YYY8 1-869)
chain: B1 chain with Y530F
Take B3: the binding result in test [2] is “binds”.
